PubChem BioAssay AID1259405 | NCATS – 2018

Screen: 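Knock-downs that lift recombinant protein yield in hamster ovary cells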 (primary screen)
Cell system: Chinese hamster CHO-K1 ovary cells with stable secreted eGFP expression
Knock-down reagent: single siRNA against mouse genes, 0.8 pmol siRNA per well (2 µl of 400 nM stock)
Duration: 3 days
Measurement: 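Per-well intracellular GFP measured by laser scanning cytometry, plus viability from ATP luminescence, each relative to plate median of non-targeting control wells, in %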
Direction: GFP, % of control: higher = more GFP per well, higher productivity
Rule for the call: 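Called active when intracellular GFP, relative to negative control, is at or above 120%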
This is one part, drawn at random, of about 50,000 reagents. Of all reagents, about 4,000 (8%) got an active call. 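Mouse siRNA library applied to hamster cells; one well for each siRNA.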 Entries without a mark were called inactive. Further read-outs or replicates are left out here.

GFP, % of control, by target gene and reagent
Mlx (GeneID 21428): SID363573705 89.9; SID363581449 57.3; SID363583913 74.9
Ptk2 (GeneID 14083): SID363570752 48.4
Sp110 (GeneID 109032): SID363545796 83.1; SID363549309 85.1; SID363563115 138 (active)
Tcf20 (GeneID 21411): SID363556345 109; SID363586795 78.5; SID363588903 85.2
Slc22a13b (GeneID 109280): SID363547569 108; SID363558338 71.3; SID363560096 71
Cdh22 (GeneID 104010): SID363572996 88.8; SID363577572 68.7; SID363581092 55.9
Ell (GeneID 13716): SID363584470 75.8; SID363589500 114
Vmn1r208 (GeneID 171252): SID363556755 80.7; SID363563659 65.1; SID363587205 102
Zcchc9 (GeneID 69085): SID363556581 58.8; SID363563485 18.4; SID363587031 82.5
A730049H05Rik (GeneID 74516): SID363552368 78.2; SID363585504 106; SID363585855 124 (active)
Psg26 (GeneID 574429): SID363555305 79.9; SID363563966 90; SID363587512 101
Pglyrp3 (GeneID 242100): SID363568635 126 (active); SID363576027 84.9; SID363578843 93.8
Arpc1a (GeneID 56443): SID363540995 43.3; SID363555622 68.3; SID363565911 66.1
Ccdc92b (GeneID 432582): SID363540193 79.5; SID363541945 83.1; SID363566861 93.5
Slc25a19 (GeneID 67283): SID363569953 39.6; SID363576993 64.8; SID363578401 79.3

In a second layout: 13 of the entries above.
target gene	PubChem SID	GFP, % of control
Zcchc9 (GeneID 69085)	SID363563485	18.4
Zcchc9 (GeneID 69085)	SID363587031	82.5
A730049H05Rik (GeneID 74516)	SID363552368	78.2
A730049H05Rik (GeneID 74516)	SID363585504	106
A730049H05Rik (GeneID 74516)	SID363585855	124 (active)
Psg26 (GeneID 574429)	SID363555305	79.9
Psg26 (GeneID 574429)	SID363563966	90
Psg26 (GeneID 574429)	SID363587512	101
Pglyrp3 (GeneID 242100)	SID363568635	126 (active)
Pglyrp3 (GeneID 242100)	SID363576027	84.9
Pglyrp3 (GeneID 242100)	SID363578843	93.8
Arpc1a (GeneID 56443)	SID363540995	43.3
Arpc1a (GeneID 56443)	SID363555622	68.3

The results go on.
GFP, % of control, by target gene and reagent
Slc2a9 (GeneID 117591): SID363547602 101; SID363558371 99.9; SID363560129 59.3
Atp6v1a (GeneID 11964): SID363574367 74.6; SID363575423 79.3; SID363579999 73.1
Trim56 (GeneID 384309): SID363572650 61.4; SID363577930 95.2; SID363582154 97.2
Prss29 (GeneID 114662): SID363547203 143 (active); SID363557972 55.3; SID363559730 92.4
Dennd11 (GeneID 243780): SID363539811 57; SID363561112 84.8; SID363565202 58.4
Rhov (GeneID 228543): SID363570299 72; SID363576635 54.2; SID363579803 49.8
Parp12 (GeneID 243771): SID363556875 44.8; SID363563779 64; SID363587325 57.8
Asb6 (GeneID 72323): SID363546633 133 (active); SID363548389 88.8; SID363560567 75.7
Cenpi (GeneID 102920): SID363539926 80.6; SID363561227 60.4; SID363564263 63.1
Alg12 (GeneID 223774): SID363545096 97.2; SID363548609 52.5; SID363562415 122 (active)
Rpn2 (GeneID 20014): SID363570405 88.1; SID363579205 90.9; SID363583077 83.2
Cibar1 (GeneID 68099): SID363552331 31.9; SID363585467 69.2; SID363585818 171 (active)
Mtmr2 (GeneID 77116): SID363575118 164 (active); SID363580750 119; SID363582862 88.7
Dot1l (GeneID 208266): SID363570538 144 (active); SID363579338 45.3; SID363583210 89.4
Fam24a (GeneID 68223): SID363543439 8.25; SID363552932 120 (active); SID363558780 59.3
Grin1 (GeneID 14810): SID363544148 87.6; SID363550476 52.8; SID363557025 81.2
Aebp2 (GeneID 11569): SID363573478 92.9; SID363588717 85.6
Trp53i13 (GeneID 216964): SID363569138 38; SID363583570 154 (active)
Fto (GeneID 26383): SID363539922 65.7; SID363561223 97.9; SID363564259 52.4
Poc1b (GeneID 382406): SID363552200 35.1; SID363585336 61.1; SID363585687 152 (active)
Ceacam12 (GeneID 67315): SID363555217 91.1; SID363563878 85; SID363587424 80
Hmgb4 (GeneID 69317): SID363540787 77.7; SID363543238 57.4; SID363552731 64.3
Blvrb (GeneID 233016): SID363569113 61.9; SID363583545 96.6
